Measured values: publication PMC6925144, “A prospective compound screening contest identified broader inhibitors for Sirtuin 1” (Scientific Reports, 2019)
In all, about 3,200 compounds were measured (“TSA(with NAD+) / Primary screening (TSA) / delta Tm (K)”: median about -0.04, highest 2% from about 0.37 on). The list shows a part of the results.

The chains behind the UniProt entries cited, without tags or fusion partners. Residues count along the entry.
UniProt Q96EB6, 2-747 limits assumed: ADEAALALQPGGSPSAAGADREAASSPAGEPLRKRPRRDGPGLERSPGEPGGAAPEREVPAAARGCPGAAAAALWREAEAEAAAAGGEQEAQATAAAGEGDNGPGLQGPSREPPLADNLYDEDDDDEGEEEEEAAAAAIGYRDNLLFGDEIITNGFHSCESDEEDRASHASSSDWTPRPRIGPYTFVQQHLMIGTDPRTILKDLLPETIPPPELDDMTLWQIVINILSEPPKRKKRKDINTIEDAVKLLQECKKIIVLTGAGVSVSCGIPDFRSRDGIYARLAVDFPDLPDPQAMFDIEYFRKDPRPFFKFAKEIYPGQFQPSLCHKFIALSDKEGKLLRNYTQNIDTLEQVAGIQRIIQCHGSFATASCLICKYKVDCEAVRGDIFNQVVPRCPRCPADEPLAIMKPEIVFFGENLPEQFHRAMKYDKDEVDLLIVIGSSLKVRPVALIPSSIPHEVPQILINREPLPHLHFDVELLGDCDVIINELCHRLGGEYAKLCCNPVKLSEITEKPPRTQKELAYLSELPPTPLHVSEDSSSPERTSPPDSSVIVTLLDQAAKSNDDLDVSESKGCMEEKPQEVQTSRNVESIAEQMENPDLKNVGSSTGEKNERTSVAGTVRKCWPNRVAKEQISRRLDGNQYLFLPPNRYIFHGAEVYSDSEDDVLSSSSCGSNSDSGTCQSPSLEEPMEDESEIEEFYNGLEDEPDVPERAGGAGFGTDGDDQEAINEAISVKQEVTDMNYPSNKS

target: NAD-dependent deacetylase Sirtuin 1 (human, UniProt Q96EB6); experiment: primary screen, delta tm; set-up: single well (n = 1, as 'the same TSA'); settings: 10 µM

Row | Structure (SMILES) | TSA(with NAD+) / Primary screening (TSA) / delta Tm (K)
1 | CCCOc1c(Cl)cc(/C=C/C(=O)Nc2c(C(N)=O)n[nH]c2C)cc1OC | -0.03
2 | CC(C)(C)c1nc(CN2CCN(c3ncnc4c3oc3ccccc34)CC2)no1 | -0.15
3 | O=C(c1cc2ccccc2oc1=O)N1CCC(c2ccc(O)cc2)CC1 | -0.12
4 | O=C(O)C(O)CS(=O)(=O)O (centres unmarked) | -0.15
5 | CC12CCC(=O)N1C(C(=O)O)Cc1c2[nH]c2ccccc12 (centres unmarked) | 0.09
6 | O=C(Nc1ccccc1)C1CCN(c2ncnc3scc(-c4ccc(F)cc4)c23)CC1 | 0.13
7 | Cc1ccccc1-c1nnc(Nc2cccc(S(=O)(=O)N(C)c3ccccc3)c2)o1 | 0.01
8 | Cc1nc(N2CCC(C(N)=O)CC2)c2cc(-c3ccccc3)sc2n1 | -0.04
9 | Cc1nc(N2CCC(NC(N)=O)CC2)c2c3c(sc2n1)CCCC3 | -0.03
10 | CC1CC(C(N)=O)c2ccccc2N1Cc1nc(-c2cccc(C(F)(F)F)c2)no1 (centres unmarked) | -0.08
11 | Cn1c2ccccc2c2cc(S(=O)(=O)NCc3cccc(NC(=O)C4CC4)c3)ccc21 | 0.06
12 | NC(c1ccccc1)c1ccc(Cl)cc1 (centres unmarked) | -0.15
13 | CCN(CC(=O)Nc1ccc(OC)cc1)C(C)C(=O)Nc1ccc(C(N)=O)cc1 (centres unmarked) | -0.06
14 | CNC(=O)CS | -0.21
15 | CC(=O)c1ccccc1NC(=O)c1cc(F)c(F)c(F)c1F | -0.03
16 | Cc1ccc2c(c1)nc(-c1cnc(N3CCCC3)nc1)n2C | -0.11
17 | Cc1ccc(Nc2nc(CSc3nnc(NCc4ccco4)s3)cs2)cc1 | -0.12
18 | O=C(NO)c1cccc(C(F)(F)F)c1 | -0.19
19 | Cc1noc(C)c1COc1ccccc1C(=O)NCCc1cccnc1 | -0.18
20 | COC(=O)C1=C(C)OC(CSc2nnc(CCC3CCCC3)[nH]2)C1 (centres unmarked) | -0.14
21 | Cn1c(NCc2cccnc2)c(C#N)c(=O)n(C)c1=O | 0.05
22 | CCSC1CCC(NC(=O)Cc2cnc3ccccc3c2)C1 (centres unmarked) | -0.11
23 | CCCN(Cc1nnc(-c2ccccc2Cl)o1)C(=O)c1cccc(S(=O)(=O)N(C)c2ccc(C)cc2)c1 | -0.09
24 | O=C(CN1CCN(C(=O)c2ccccc2C(=O)c2ccccc2)CC1)Nc1ccccc1Cl | 0.05
25 | COc1cc(CN(C)C(=O)Cn2c(=O)oc3ccccc32)ccc1OCc1ccccc1 | -0.02
26 | CC1CCN(c2ccc(C(=O)Nc3ncc(C(N)=O)s3)cc2[N+](=O)[O-])CC1 | 0.17

Some of the entries so far, as a markdown table:

| Row | Structure (SMILES) | TSA(with NAD+) / Primary screening (TSA) / delta Tm (K) |
| --- | --- | --- |
| 6 | O=C(Nc1ccccc1)C1CCN(c2ncnc3scc(-c4ccc(F)cc4)c23)CC1 | 0.13 |
| 25 | COc1cc(CN(C)C(=O)Cn2c(=O)oc3ccccc32)ccc1OCc1ccccc1 | -0.02 |
